Values from PubChem BioAssay AID1259405 (NCATS, 2018)

- Screen: 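Silenced genes that increase secreted GFP made by CHO cells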 (primary screen)
- Cell system: Chinese hamster CHO-K1 ovary cells with stable secreted eGFP expression
- Reagent: single siRNA against mouse genes, 0.8 pmol siRNA per well (2 µl of 400 nM stock)
- Duration: 3 days
- Measured: 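Per-well intracellular GFP measured by laser scanning cytometry, plus viability from ATP luminescence, each relative to plate median of non-targeting control wells, in %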
- Reading the numbers: GFP, % of control: higher = more GFP per well, higher productivity; viability (ATP), % of control: higher = more viable cells (more ATP)
- Hit rule: 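a knock-down is called active if GFP reaches 120% or more of non-targeting control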
Here is one part, drawn at random, of about 50,000 reagents tested. About 4,000 of all reagents (8%) were called active. 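Mouse siRNA library applied to hamster cells; one well for each siRNA.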 Reagents against one gene are numbered here.

| Target gene | siRNA no. | GFP, % of control | viability (ATP), % of control | call |
| --- | --- | --- | --- | --- |
| Acap2 (ArfGAP with coiled-coil, ankyrin repeat and PH domains 2) | 1 | 84.5 | 80.5 | inactive |
| Acap2 (ArfGAP with coiled-coil, ankyrin repeat and PH domains 2) | 2 | 96.8 | 86.1 | inactive |
| Acap2 (ArfGAP with coiled-coil, ankyrin repeat and PH domains 2) | 3 | 90.1 | 101 | inactive |
| Slc25a51 | 1 | 95.8 | 78.2 | inactive |
| Slc25a51 | 2 | 104 | 78.3 | inactive |
| Slc25a51 | 3 | 96.1 | 81.5 | inactive |
| Grhl1 (grainyhead like transcription factor 1) | 1 | 55.9 | 66.2 | inactive |
| Grhl1 (grainyhead like transcription factor 1) | 2 | 79.6 | 78.9 | inactive |
| Grhl1 (grainyhead like transcription factor 1) | 3 | 118 | 61.9 | inactive |
| Acat1 (acetyl-Coenzyme A acetyltransferase 1) | 1 | 74.8 | 73.9 | inactive |
| Acat1 (acetyl-Coenzyme A acetyltransferase 1) | 2 | 133 | 139 | active |
| Acat1 (acetyl-Coenzyme A acetyltransferase 1) | 3 | 88.2 | 101 | inactive |
| Dusp2 (dual specificity phosphatase 2) | 1 | 69 | 72.6 | inactive |
| Dusp2 (dual specificity phosphatase 2) | 2 | 71.6 | 68 | inactive |
| Spata33 (spermatogenesis associated 33) | 1 | 56.1 | 48.4 | inactive |
| Spata33 (spermatogenesis associated 33) | 2 | 118 | 86.2 | inactive |
| Spata33 (spermatogenesis associated 33) | 3 | 71.2 | 86.6 | inactive |
| Rhox2a (reproductive homeobox 2A) | 1 | 128 | 114 | active |
| Rhox2a (reproductive homeobox 2A) | 2 | 81.6 | 58.9 | inactive |
| Rhox2a (reproductive homeobox 2A) | 3 | 145 | 59.1 | active |
| Jph4 (junctophilin 4) | 1 | 68.7 | 76.2 | inactive |
| Jph4 (junctophilin 4) | 2 | 70.2 | 62.7 | inactive |
| Jph4 (junctophilin 4) | 3 | 117 | 55.2 | inactive |
| Txnrd3 (thioredoxin reductase 3) | 1 | 69.1 | 70.2 | inactive |
| Txnrd3 (thioredoxin reductase 3) | 2 | 86.8 | 62.6 | inactive |
| Txnrd3 (thioredoxin reductase 3) | 3 | 56.1 | 65.7 | inactive |
| Dyrk4 (dual-specificity tyrosine phosphorylation regulated kinase 4) | 1 | 70 | 84.3 | inactive |
| Birc3 (baculoviral IAP repeat-containing 3) | 1 | 118 | 116 | inactive |
| Birc3 (baculoviral IAP repeat-containing 3) | 2 | 85.2 | 116 | inactive |
| Kdm4c (lysine (K)-specific demethylase 4C) | 1 | 51.1 | 59.5 | inactive |
| Kdm4c (lysine (K)-specific demethylase 4C) | 2 | 77.3 | 87.6 | inactive |
| Kdm4c (lysine (K)-specific demethylase 4C) | 3 | 96.8 | 30.1 | inactive |
| Nicn1 (nicolin 1) | 1 | 74.7 | 61.6 | inactive |
| Nicn1 (nicolin 1) | 2 | 36 | 54.7 | inactive |
| Nicn1 (nicolin 1) | 3 | 134 | 56.6 | active |
| Pcdhga9 (protocadherin gamma subfamily A, 9) | 1 | 72.6 | 57.4 | inactive |
| Pcdhga9 (protocadherin gamma subfamily A, 9) | 2 | 85.5 | 64 | inactive |
| Pcdhga9 (protocadherin gamma subfamily A, 9) | 3 | 60.8 | 63.1 | inactive |
| Tmem59l (transmembrane protein 59-like) | 1 | 77.7 | 83.8 | inactive |
| Tmem59l (transmembrane protein 59-like) | 2 | 79.1 | 89 | inactive |
| Tmem59l (transmembrane protein 59-like) | 3 | 102 | 107 | inactive |
| Vmn1r50 (vomeronasal 1 receptor 50) | 1 | 81.7 | 67.3 | inactive |
| Vmn1r50 (vomeronasal 1 receptor 50) | 2 | 88.8 | 89.8 | inactive |
| Vmn1r50 (vomeronasal 1 receptor 50) | 3 | 51.9 | 67.6 | inactive |
| Ano10 (anoctamin 10) | 1 | 108 | 89.3 | inactive |
| Ano10 (anoctamin 10) | 2 | 105 | 87 | inactive |
| Ano10 (anoctamin 10) | 3 | 89.8 | 69 | inactive |
| Popdc3 (popeye domain containing 3) | 1 | 68.2 | 71.9 | inactive |
| Popdc3 (popeye domain containing 3) | 2 | 97.9 | 89.6 | inactive |
| Popdc3 (popeye domain containing 3) | 3 | 91.2 | 103 | inactive |
| Nmt1 (N-myristoyltransferase 1) | 1 | 53.2 | 82.5 | inactive |
| Nmt1 (N-myristoyltransferase 1) | 2 | 88.8 | 129 | inactive |
| Nmt1 (N-myristoyltransferase 1) | 3 | 95.3 | 127 | inactive |
| Or8a1 (olfactory receptor family 8 subfamily A member 1) | 1 | 62.8 | 55.8 | inactive |
| Or8a1 (olfactory receptor family 8 subfamily A member 1) | 2 | 222 | 28.6 | active |
| Or8a1 (olfactory receptor family 8 subfamily A member 1) | 3 | 100 | 107 | inactive |
| Galk2 (galactokinase 2) | 1 | 68.8 | 43.7 | inactive |
| Galk2 (galactokinase 2) | 2 | 37.7 | 80.7 | inactive |
| Galk2 (galactokinase 2) | 3 | 71.6 | 76.4 | inactive |
| Or4c116 (olfactory receptor family 4 subfamily C member 116) | 1 | 92.4 | 90.8 | inactive |
| Or4c116 (olfactory receptor family 4 subfamily C member 116) | 2 | 60.5 | 57.7 | inactive |
| Or4c116 (olfactory receptor family 4 subfamily C member 116) | 3 | 61.1 | 89.6 | inactive |
| Or51ag1 (olfactory receptor family 51 subfamily AG member 1) | 1 | 64.8 | 60.3 | inactive |
| Or51ag1 (olfactory receptor family 51 subfamily AG member 1) | 2 | 140 | 83.6 | active |
| Or51ag1 (olfactory receptor family 51 subfamily AG member 1) | 3 | 115 | 123 | inactive |
| Vegfd (vascular endothelial growth factor D) | 1 | 67.5 | 65.7 | inactive |
| Vegfd (vascular endothelial growth factor D) | 2 | 85 | 83.4 | inactive |
| Vegfd (vascular endothelial growth factor D) | 3 | 76.1 | 67 | inactive |
| Mlec (malectin) | 1 | 103 | 71.3 | inactive |
| Mlec (malectin) | 2 | 53.6 | 50.4 | inactive |
| Mlec (malectin) | 3 | 49.9 | 68.6 | inactive |
| Cpox (coproporphyrinogen oxidase) | 1 | 114 | 126 | inactive |
| Cpox (coproporphyrinogen oxidase) | 2 | 65.5 | 68.8 | inactive |
| Cpox (coproporphyrinogen oxidase) | 3 | 66.3 | 69.1 | inactive |
| Nr1d2 (nuclear receptor subfamily 1, group D, member 2) | 1 | 96.9 | 86.8 | inactive |
| Nr1d2 (nuclear receptor subfamily 1, group D, member 2) | 2 | 107 | 92 | inactive |
| Galm (galactose mutarotase) | 1 | 76.9 | 71.5 | inactive |
| Galm (galactose mutarotase) | 2 | 77.3 | 59 | inactive |
| Galm (galactose mutarotase) | 3 | 54.6 | 76.7 | inactive |
| Zfp7 (zinc finger protein 7) | 1 | 60.3 | 61.5 | inactive |
| Zfp7 (zinc finger protein 7) | 2 | 39.3 | 52 | inactive |
| Iffo1 (intermediate filament family orphan 1) | 1 | 88 | 68.5 | inactive |
| Iffo1 (intermediate filament family orphan 1) | 2 | 137 | 83.2 | active |
| Iffo1 (intermediate filament family orphan 1) | 3 | 95.8 | 101 | inactive |

Entries listed so far whose gene name starts with O or o (9):
| Target gene | siRNA no. | GFP, % of control | viability (ATP), % of control | call |
| --- | --- | --- | --- | --- |
| Or8a1 (olfactory receptor family 8 subfamily A member 1) | 1 | 62.8 | 55.8 | inactive |
| Or8a1 (olfactory receptor family 8 subfamily A member 1) | 2 | 222 | 28.6 | active |
| Or8a1 (olfactory receptor family 8 subfamily A member 1) | 3 | 100 | 107 | inactive |
| Or4c116 (olfactory receptor family 4 subfamily C member 116) | 1 | 92.4 | 90.8 | inactive |
| Or4c116 (olfactory receptor family 4 subfamily C member 116) | 2 | 60.5 | 57.7 | inactive |
| Or4c116 (olfactory receptor family 4 subfamily C member 116) | 3 | 61.1 | 89.6 | inactive |
| Or51ag1 (olfactory receptor family 51 subfamily AG member 1) | 1 | 64.8 | 60.3 | inactive |
| Or51ag1 (olfactory receptor family 51 subfamily AG member 1) | 2 | 140 | 83.6 | active |
| Or51ag1 (olfactory receptor family 51 subfamily AG member 1) | 3 | 115 | 123 | inactive |
